# Assay results

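Uptake of anthrax lethal toxin into cultured cells, read by FRET (460/530 nm ratio) and reported from the 460 nm channel; the cell line is not named here. Each compound was tested as a concentration series from about 0.0005 to 40 µM. The number is the fitted AC50 of the 460 nm signal alone; lower values mean a more potent effect. A falling signal goes with compounds filed as inhibitors or cytotoxic, a rising one with activators or fluorescent compounds (inferred from the filed classes).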

Values are in µM. Common to all entries: measured here: 460 nm channel. Part of the compounds only, not a random draw; the main read-out is not listed here. A potency from a partial, single-point or poor curve is only a rough figure. The first word of each remark tells which way the curve ran; it can be opposite to the aim of the assay.

Result for Nc1nc(SCC(=O)OCc2ccccc2)[nH]c(=O)c1NC(=O)c1ccco1 was AC50 15.85 µM (falling, single point). ONC=Nc1cccc2nonc12 read AC50 0.05012 µM (falling, full curve, poor fit). COc1cc(-c2nnc3sc(-c4ccco4)nn23)cc(OC)c1OC gave AC50 0.3981 µM (falling, full curve, poor fit). O=C(NCCN1C(=O)C2C3C=CC(C3)C2C1=O)Nc1cccnc1 (centres unmarked) read AC50 10 µM (rising, single point). O=C1c2ccccc2C(=O)N1CCOCCN1C(=O)c2ccccc2C1=O gave AC50 0.02512 µM (rising, full curve, poor fit).

For Oc1ccc(Cl)cc1Cc1ccccc1 the result was AC50 15.85 µM (falling, partial curve). Result for Cc1nc(NCc2ccccc2)c2nc(-c3ccccc3)n(C3CCN(Cc4ccccc4)C3)c2n1 (centres unmarked) was AC50 31.62 µM (falling, single point). With CC(C)[C@@H](OCc1ccccc1)[C@H](C)/C=N\OC[C@@H](C)[C@H](OCc1ccccc1)C(C)C the assay gave AC50 5.012 µM (rising, single point). CCn1c(COc2ccc(Cl)c(C)c2)nnc1SCC(=O)N1CCCC1 read AC50 5.012 µM (rising, partial curve). Cc1ccc(S(=O)(=O)N2CCN(Cc3ccccc3C(F)(F)F)CC2)cc1 read AC50 12.59 µM (falling, partial curve).

CCc1c(C)c2nncn2[nH]c1=O read AC50 0.1259 µM (falling, full curve). COc1ccc(-c2nc3cnc(OCc4ccccc4)nc3n(CCC#N)c2=O)cc1 gave AC50 10 µM (rising, partial curve). CN(C)c1ccc(-c2nc(NCCc3cnc[nH]3)c3ccccc3n2)cc1 read AC50 25.12 µM (falling, single point). CCC[C@@H]1C[C@@]1(CCC)[C@@H](NP(=O)(c1ccccc1)c1ccccc1)c1ccc(C(=O)OC)cc1 read AC50 31.62 µM (falling, single point). Result for CCC(=NC1CCN(Cc2ccccc2)CC1)c1c(O)[nH]c(=O)[nH]c1=O was AC50 15.85 µM (falling, partial curve, poor fit).

For COc1ccc2nc(NC(=O)C3CCN(S(=O)(=O)c4cccc5nsnc45)CC3)sc2c1 the result was AC50 12.59 µM (falling, partial curve). Result for O=C(CCCCCn1c(=S)[nH]c2cc3c(cc2c1=O)OCO3)N1CCN(C2CCCCC2)CC1 was AC50 3.981 µM (rising, full curve). Result for CCc1nc2sc(C)c(C)c2c(=O)n1CCO was AC50 3.981 µM (rising, partial curve). Result for O=C(CSc1nnc(-c2ccccc2)o1)N1CCN(c2ccccc2)CC1 was AC50 0.3162 µM (falling, partial curve, poor fit). c1cc2c3c(c1)c1c(n3CCNC2)CCCC1 gave AC50 31.62 µM (falling, single point).

For reference, 2 entries once more:

- COc1cc(-c2nnc3sc(-c4ccco4)nn23)cc(OC)c1OC | AC50 0.3981 µM (falling, full curve, poor fit)
- CCn1c(COc2ccc(Cl)c(C)c2)nnc1SCC(=O)N1CCCC1 | AC50 5.012 µM (rising, partial curve)

The results are deposited in PubChem (AID912; NCATS, 2007).